Experimental findings from the supplement of paper PMC12819154, “High-throughput peptide-centric local stability assay extends protein–ligand identification to membrane proteins, tissues and bacteria” (Nature Structural & Molecular Biology, 2025) are described below.

Sequences of proteins named here, by UniProt entry; tags and fusion partners are left off. A change or cut given only in a name is not applied to a line headed by its entry.
UniProt Q9H267: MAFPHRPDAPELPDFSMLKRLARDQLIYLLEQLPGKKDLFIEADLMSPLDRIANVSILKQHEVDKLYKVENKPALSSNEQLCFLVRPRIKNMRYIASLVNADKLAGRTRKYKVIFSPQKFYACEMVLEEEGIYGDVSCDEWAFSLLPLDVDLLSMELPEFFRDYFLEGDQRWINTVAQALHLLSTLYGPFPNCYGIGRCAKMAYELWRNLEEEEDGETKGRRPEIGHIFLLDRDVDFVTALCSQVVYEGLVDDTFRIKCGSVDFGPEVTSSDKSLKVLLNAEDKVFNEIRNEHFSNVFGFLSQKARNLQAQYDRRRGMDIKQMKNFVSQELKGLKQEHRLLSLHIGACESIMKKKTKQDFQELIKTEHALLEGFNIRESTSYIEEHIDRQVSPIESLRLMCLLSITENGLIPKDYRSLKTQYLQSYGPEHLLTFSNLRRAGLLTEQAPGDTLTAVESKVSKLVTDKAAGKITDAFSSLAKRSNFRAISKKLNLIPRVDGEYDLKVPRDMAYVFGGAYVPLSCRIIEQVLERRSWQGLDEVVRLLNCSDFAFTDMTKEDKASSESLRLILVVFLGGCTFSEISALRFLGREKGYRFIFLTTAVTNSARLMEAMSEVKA
UniProt Q9HAJ7: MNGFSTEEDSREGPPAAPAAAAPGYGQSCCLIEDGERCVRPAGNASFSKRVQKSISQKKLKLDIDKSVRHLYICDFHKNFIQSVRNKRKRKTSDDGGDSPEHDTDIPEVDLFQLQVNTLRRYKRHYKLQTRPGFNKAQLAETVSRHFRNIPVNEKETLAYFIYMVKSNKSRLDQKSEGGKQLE
UniProt Q9H6Y5: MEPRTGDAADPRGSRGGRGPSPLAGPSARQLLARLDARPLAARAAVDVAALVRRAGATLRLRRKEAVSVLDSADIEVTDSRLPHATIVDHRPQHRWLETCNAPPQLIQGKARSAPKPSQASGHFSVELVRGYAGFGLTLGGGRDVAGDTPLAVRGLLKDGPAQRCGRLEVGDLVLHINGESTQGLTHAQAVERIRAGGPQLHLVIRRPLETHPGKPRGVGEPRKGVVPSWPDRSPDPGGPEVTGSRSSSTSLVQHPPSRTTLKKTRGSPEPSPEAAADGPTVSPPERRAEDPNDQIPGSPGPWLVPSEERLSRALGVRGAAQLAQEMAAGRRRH
UniProt Q9H8Y5: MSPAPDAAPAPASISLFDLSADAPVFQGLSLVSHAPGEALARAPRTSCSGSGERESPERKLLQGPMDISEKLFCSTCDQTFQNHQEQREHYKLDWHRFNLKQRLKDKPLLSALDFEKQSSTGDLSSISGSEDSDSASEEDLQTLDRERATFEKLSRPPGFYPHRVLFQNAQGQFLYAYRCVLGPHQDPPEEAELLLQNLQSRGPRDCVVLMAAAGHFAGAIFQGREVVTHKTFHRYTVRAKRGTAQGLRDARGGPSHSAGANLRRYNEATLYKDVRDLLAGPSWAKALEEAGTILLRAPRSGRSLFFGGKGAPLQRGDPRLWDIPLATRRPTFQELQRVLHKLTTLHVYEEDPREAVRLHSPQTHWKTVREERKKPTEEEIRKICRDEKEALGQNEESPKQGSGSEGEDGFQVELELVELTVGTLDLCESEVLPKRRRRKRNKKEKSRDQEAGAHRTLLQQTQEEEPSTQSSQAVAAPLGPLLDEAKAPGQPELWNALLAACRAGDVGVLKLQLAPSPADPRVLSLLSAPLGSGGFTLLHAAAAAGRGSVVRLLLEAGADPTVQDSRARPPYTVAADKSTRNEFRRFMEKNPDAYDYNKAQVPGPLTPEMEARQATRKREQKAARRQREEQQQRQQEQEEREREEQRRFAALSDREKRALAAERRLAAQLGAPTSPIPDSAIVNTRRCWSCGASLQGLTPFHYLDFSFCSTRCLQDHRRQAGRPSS
UniProt Q9H4I2: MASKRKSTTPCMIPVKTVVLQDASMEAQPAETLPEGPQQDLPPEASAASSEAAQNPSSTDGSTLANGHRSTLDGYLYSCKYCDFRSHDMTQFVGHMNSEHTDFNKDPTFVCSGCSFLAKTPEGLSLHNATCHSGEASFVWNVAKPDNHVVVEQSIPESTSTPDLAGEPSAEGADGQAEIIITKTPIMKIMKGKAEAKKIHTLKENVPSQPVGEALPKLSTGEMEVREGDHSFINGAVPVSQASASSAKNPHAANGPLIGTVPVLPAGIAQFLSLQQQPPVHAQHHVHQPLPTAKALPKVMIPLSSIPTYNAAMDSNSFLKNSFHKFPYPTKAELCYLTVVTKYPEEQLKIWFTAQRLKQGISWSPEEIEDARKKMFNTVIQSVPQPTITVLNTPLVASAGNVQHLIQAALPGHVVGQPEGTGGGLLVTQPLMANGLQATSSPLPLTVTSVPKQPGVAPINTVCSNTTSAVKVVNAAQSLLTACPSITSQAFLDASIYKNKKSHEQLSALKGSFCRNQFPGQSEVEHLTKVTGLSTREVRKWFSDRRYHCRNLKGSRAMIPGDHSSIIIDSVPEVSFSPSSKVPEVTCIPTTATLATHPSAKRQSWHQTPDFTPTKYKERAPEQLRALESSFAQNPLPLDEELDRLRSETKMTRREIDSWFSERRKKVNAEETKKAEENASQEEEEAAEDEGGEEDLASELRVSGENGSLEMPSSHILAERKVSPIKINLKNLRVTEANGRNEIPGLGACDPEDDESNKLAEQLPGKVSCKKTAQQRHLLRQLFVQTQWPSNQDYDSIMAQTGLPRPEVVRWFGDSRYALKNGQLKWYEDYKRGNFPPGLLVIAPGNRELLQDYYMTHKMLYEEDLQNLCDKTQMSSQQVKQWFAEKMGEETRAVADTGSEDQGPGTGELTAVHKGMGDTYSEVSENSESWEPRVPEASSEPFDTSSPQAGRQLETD
UniProt Q9H1K1: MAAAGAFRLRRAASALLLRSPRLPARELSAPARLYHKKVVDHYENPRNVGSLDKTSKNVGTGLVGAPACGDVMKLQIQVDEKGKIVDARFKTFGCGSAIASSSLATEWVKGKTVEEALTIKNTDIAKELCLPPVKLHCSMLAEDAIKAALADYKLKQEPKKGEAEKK
UniProt Q9H3U5: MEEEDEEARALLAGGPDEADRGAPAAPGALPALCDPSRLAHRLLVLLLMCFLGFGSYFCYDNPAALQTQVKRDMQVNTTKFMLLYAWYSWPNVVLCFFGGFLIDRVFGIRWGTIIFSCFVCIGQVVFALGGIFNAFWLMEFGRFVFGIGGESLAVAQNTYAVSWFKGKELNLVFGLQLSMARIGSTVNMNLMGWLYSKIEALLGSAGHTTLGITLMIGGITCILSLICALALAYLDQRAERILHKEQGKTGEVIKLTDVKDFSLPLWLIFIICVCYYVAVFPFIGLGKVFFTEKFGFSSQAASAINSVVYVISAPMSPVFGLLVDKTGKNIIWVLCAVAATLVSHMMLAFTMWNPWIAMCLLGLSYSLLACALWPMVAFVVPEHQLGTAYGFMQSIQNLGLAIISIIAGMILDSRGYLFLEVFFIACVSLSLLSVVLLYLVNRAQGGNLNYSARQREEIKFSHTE
UniProt Q9H6W3: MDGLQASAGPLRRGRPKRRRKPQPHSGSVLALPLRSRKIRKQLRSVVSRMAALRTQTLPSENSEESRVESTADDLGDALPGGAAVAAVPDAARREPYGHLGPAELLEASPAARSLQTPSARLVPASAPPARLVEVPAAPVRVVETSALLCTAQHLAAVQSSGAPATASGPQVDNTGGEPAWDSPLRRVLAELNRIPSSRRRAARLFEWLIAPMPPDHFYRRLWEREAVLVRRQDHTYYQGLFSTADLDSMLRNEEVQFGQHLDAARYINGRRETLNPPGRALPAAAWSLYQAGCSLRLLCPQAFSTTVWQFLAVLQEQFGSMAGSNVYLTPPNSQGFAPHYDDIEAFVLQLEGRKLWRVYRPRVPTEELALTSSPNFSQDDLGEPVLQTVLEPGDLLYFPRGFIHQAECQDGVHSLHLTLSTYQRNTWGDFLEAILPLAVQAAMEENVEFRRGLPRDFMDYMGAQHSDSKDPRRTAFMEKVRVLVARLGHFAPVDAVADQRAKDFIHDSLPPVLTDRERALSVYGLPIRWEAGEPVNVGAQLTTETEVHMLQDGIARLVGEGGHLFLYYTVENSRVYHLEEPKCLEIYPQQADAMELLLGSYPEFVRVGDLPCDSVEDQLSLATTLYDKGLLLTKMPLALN
UniProt Q9HB20: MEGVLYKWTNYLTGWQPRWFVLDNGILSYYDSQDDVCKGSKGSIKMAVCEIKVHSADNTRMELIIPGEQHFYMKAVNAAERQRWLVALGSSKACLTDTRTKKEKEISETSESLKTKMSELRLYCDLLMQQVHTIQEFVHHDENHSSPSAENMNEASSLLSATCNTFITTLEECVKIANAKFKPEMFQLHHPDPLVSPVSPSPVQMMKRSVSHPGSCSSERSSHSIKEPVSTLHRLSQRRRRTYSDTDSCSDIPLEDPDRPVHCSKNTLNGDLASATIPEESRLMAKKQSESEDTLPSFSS

The other results are listed elsewhere or left out. Small differences around the control level are noise.

Compound in the assay: Cc1nc(Nc2ncc(C(=O)Nc3c(C)cccc3Cl)s2)cc(N2CCN(CCO)CC2)n1 [dasatinib]
The assay is described as follows: log2 fold change of tryptic peptide abundance, ligand vs vehicle (limited proteolysis) (log2 ratio); higher = more trypsin-susceptible (destabilized). The note with it: ligand concentration: 5 uM; sample: K562 cleared lysate.
Take “VPS33B (peptide sequence: TEHALLEGFNIR, peptide start residue: 366) (UniProt Q9H267)”: the log2 fold change was -0.203.
As to “SAP30L (peptide sequence: NFIQSVR, peptide start residue: 79) (UniProt Q9HAJ7)”, the log2 fold change is -0.0977.
With “UniProt Q9H6Y5 (peptide sequence: LPHATIVDHR, peptide start residue: 82)”, the log2 fold change is -0.162.
As for “ANKZF1 (peptide sequence: EALGQNEESPK, peptide start residue: 390) (UniProt Q9H8Y5)”, the log2 fold change is -0.414.
With “ZHX3 (peptide sequence: SHEQLSALK, peptide start residue: 502) (UniProt Q9H4I2)”, the log2 fold change is -0.123.
Then “ISCU (peptide sequence: GKTVEEALTIK, peptide start residue: 111) (UniProt Q9H1K1)”, with 0.582; and “MFSD1 (peptide sequence: ALLAGGPDEADR, peptide start residue: 10) (UniProt Q9H3U5)”, with 0.00735; and “UniProt Q9H6W3 (peptide sequence: LVEVPAAPVR, peptide start residue: 132)”, with 0.169.
Take “PLEKHA3 (peptide sequence: SSHSIKEPVSTLHR, peptide start residue: 221) (UniProt Q9HB20)”: the log2 fold change is -0.223.
